In this test the test system is CD2F1 mice, intracerebral P388 leukemia, median survival T/C%. The experiment in a line: NCI In Vivo Anticancer Drug Screen. Data for tumor model P388 Leukemia (intracerebral) in CD2F1 (CDF1) mice. Particulars: T/C endpoint: median survival time, higher T/C = longer survival. The procedure:
The antitumor activity of compounds was measured in mice bearing transplantable tumors. Survival or tumor size were measured and the results are expressed as the measurement made in the treated group (T) divided by the measurement made in the vehicle treated control group (C). The tumor model used in this assay is P388 Leukemia (intracerebral) in CD2F1 (CDF1) mice

Where [1] appears, read: dose: 4.0 mg/kg/injection, schedule: Q03HX008 (ip), vehicle: saline.
The mark [2] stands for this setting: dose: 32.0 mg/kg/injection, schedule: Q01DX009 (ip), vehicle: saline.
Where [3] appears, read: dose: 64.0 mg/kg/injection, schedule: Q01DX009 (ip), vehicle: saline with Tween-80.
Setting [4] is: dose: 200.0 mg/kg/injection, schedule: Q01DX009 (ip), vehicle: saline with Tween-80.

The structures appear in SMILES notation. The list is a part of this screen's results and no random one: it is rich in T/C values a quarter to a half above the control, in often repeated tests (any T/C) and in doses without a T/C. Other doses and runs of a compound stand elsewhere. T/C is the treated group as % of the vehicle group. Some entries give survivors of the animals treated and no T/C: the source files T/C as zero there, which appears to mark a toxic dose or a test without result, not a measured value. Some doses without a T/C left all or most animals alive at the check, yet need not have been tolerated: survival well below the control is almost never listed, so the zero probably covers shortened survival too. Counts of survivors are from the toxicity check (mostly the fifth day) where no day follows; animals may have died later. Schedules are NCI's codes, read here as Q, the interval in days (D) or hours (H), X, the number of doses. Some entries hold several experiments; their values stand side by side, smallest first. Where survival is the endpoint, this PubChem deposit counts one and a half times the control or more as active, and values a quarter to a half above the control carry no call in these data; other NCI protocols may use other cut-offs. Some T/C values are followed by the survivors on the day toxicity was checked, most often the fifth; without a count, all were alive then. Additions like (4×) count equal records among those shown.

With `CCCCCCOC(=O)C(N)Cc1ccc(N(CCCl)CCCl)cc1` (centres undefined), the T/C runs as follows: (dose: 12.8 mg/kg/injection, schedule: Q03HX008 (ip), vehicle: saline) 126 % of control; (dose: 25.5 mg/kg/injection, schedule: Q03HX008 (ip), vehicle: saline) 147 % of control. Besides, the survivor count (dose: 51.0 mg/kg/injection, schedule: Q03HX008 (ip), vehicle: saline) is 9 of 10.
In the case of `CCN(C)N=Nc1ccc(C(N)=O)cc1`, the T/C (dose: 50.0 mg/kg/injection, schedule: Q01DX009 (ip), vehicle: Klucel (hydroxypropylcellulose) (HPC)) is 125 % of control. Moreover, under “dose: 200.0 mg/kg/injection, schedule: Q01DX009 (ip), vehicle: Klucel (hydroxypropylcellulose) (HPC)”, the survivor count is 6 of 6.
As for `N[C@@H](Cc1ccc(N(CCCl)CCCl)cc1)C(=O)O`, the T/C is 115 and 115 % of control [9 of 10 alive] (dose: 1.0 mg/kg/injection, schedule: Q03HX008 (ip), vehicle: saline, evaluated on day 30); 100 and 127 % of control (dose: 1.0 mg/kg/injection, schedule: Q03HX008 (ip), vehicle: saline, evaluated on day 50); 126 [9 of 10 alive] and 147 % of control (dose: 2.0 mg/kg/injection, schedule: Q03HX008 (ip), vehicle: saline, evaluated on day 30); 140 and 145 % of control (dose: 2.0 mg/kg/injection, schedule: Q03HX008 (ip), vehicle: saline, evaluated on day 50); 120 % of control under setting [1]. Moreover, the survivor count by setting is: under setting [1], 10 of 10 and 6 of 6; (dose: 8.0 mg/kg/injection, schedule: Q03HX008 (ip), vehicle: saline) 1 of 6, 7 of 10, 9 of 10, 6 of 6; (dose: 16.0 mg/kg/injection, schedule: Q03HX008 (ip), vehicle: saline) 0 of 6; (dose: 32.0 mg/kg/injection, schedule: Q03HX008 (ip), vehicle: saline) 0 of 6.
On to `CCN(CC)CCCC(C)Nc1c2ccc(Cl)cc2nc2ccc(OC)cc12` (centres undefined), for which the survivor count is, setting by setting: (dose: 128.0 mg/kg/injection, schedule: Q01DX009 (ip), vehicle: suspension in saline) 0 of 10; (dose: 256.0 mg/kg/injection, schedule: Q01DX009 (ip), vehicle: suspension in saline) 0 of 10.
Turning to `COc1ccc(CC2C(=O)NC(C)C(=O)N(C)C3C(=O)N(C)C(Cc4ccc(O)c(c4)Oc4ccc(cc4)C3O)C(=O)NC(C)C(=O)NC(C)C(=O)N2C)cc1` (centres undefined), where the note is “dose: 4.0 mg/kg/injection, schedule: Q01DX009 (ip), vehicle: Klucel (hydroxypropylcellulose) (HPC)”, the survivor count was 6 of 10.
Regarding `O=P1(NCCCl)OCCCN1CCCl` (centres undefined), the T/C (dose: 431.0 mg/kg/injection, schedule: Q01DX001 (ip), vehicle: saline) is 149 % of control.
Consider `O=C1c2ccccc2C(=O)c2c(NCCNCCO)ccc(NCCNCCO)c21`, for which the survivor count under setting [2] was 6 of 6; the survivor count (dose: 64.0 mg/kg/injection, schedule: Q01DX005 (ip), vehicle: saline with Tween-80) is 4 of 6; the survivor count under setting [3] is listed as 5 of 6.
With `COc1cc(C[C@H]2c3cc(OC)c(OC)cc3CCN2C)c(Oc2cc3c(cc2OC)-c2c(OC)c(OC)cc4c2[C@H](C3)N(C)CC4)cc1OC`, the survivor count (dose: 400.0 mg/kg/injection, schedule: Q01DX005 (ip), vehicle: Klucel (hydroxypropylcellulose) (HPC)) is 0 of 10, 1 of 8, 3 of 10.
For `Nc1ncnc2c1ncn2C1OC(COP(=O)(O)O)C(O)C1O` (centres undefined), the T/C runs as follows: (dose: 100.0 mg/kg/injection, schedule: Q01DX009 (ip), vehicle: saline) 95, 104, 104 [5 of 6 alive], 110, 111 % of control; (dose: 200.0 mg/kg/injection, schedule: Q01DX009 (ip), vehicle: saline) 102, 104, 106, 107, 108 % of control; (dose: 400.0 mg/kg/injection, schedule: Q01DX009 (ip), vehicle: saline) 97, 101, 101 [5 of 6 alive], 106, 112 % of control; (dose: 800.0 mg/kg/injection, schedule: Q01DX009 (ip), vehicle: saline) 90, 93, 106 (2×), 109 % of control.
For `Cc1cnc(/C=N\NC(N)=S)c2cccc(N)c12`, the survivor count under setting [4] was 3 of 10.
For the compound `O=NN(CCCl)C(=O)NCCCl`, the T/C is 105 [9 of 10 alive], 138, 140, 143, 165, 166, 172, 173, 210 % of control (dose: 2.5 mg/kg/injection, schedule: Q01DX009 (ip), vehicle: saline + alcohol); 135 % of control (dose: 4.0 mg/kg/injection, schedule: Q01DX005 (iv), vehicle: saline + alcohol); 164 [9 of 10 alive], 166, 171, 178, 186, 190, 202, 203, 207 % of control (dose: 5.0 mg/kg/injection, schedule: Q01DX009 (ip), vehicle: saline + alcohol, evaluated on day 30); 190 % of control (dose: 5.0 mg/kg/injection, schedule: Q01DX009 (ip), vehicle: saline + alcohol, evaluated on day 60); 119, 122, 128, 135, 136, 137, 146, 200, 214 % of control (dose: 10.0 mg/kg/injection, schedule: Q01DX009 (ip), vehicle: saline + alcohol, evaluated on day 30); 148 % of control (dose: 10.0 mg/kg/injection, schedule: Q01DX009 (ip), vehicle: saline + alcohol, evaluated on day 60). Besides, the T/C runs as follows: (dose: 15.0 mg/kg/injection, schedule: Q01DX009 (ip), vehicle: saline + alcohol, evaluated on day 30) 99, 100 (2×), 107, 109, 110 (2×), 116, 121 % of control [8 of 10 alive]; (dose: 15.0 mg/kg/injection, schedule: Q01DX009 (ip), vehicle: saline + alcohol, evaluated on day 60) 115 % of control; (dose: 16.0 mg/kg/injection, schedule: Q01DX005 (iv), vehicle: saline + alcohol) 141 % of control. Also, the survivor count (dose: 50.0 mg/kg/injection, schedule: Q01DX001 (ip), vehicle: saline + alcohol) is reported as 10 of 10.
On to `Nc1ccc2nc3ccc(N)cc3[n+](-c3ccccc3)c2c1`, for which the survivor count (dose: 16.0 mg/kg/injection, schedule: Q01DX009 (ip), vehicle: saline) is reported as 4 of 6 and the survivor count under setting [2] was 2 of 6.
With `O=C1c2c(O)ccc(O)c2C(=O)c2c(NCCNCCO)ccc(NCCNCCO)c21`, the survivor count was 10 of 10 (dose: 4.0 mg/kg/injection, schedule: Q01DX009 (ip), vehicle: saline with Tween-80); 10 of 10 (dose: 8.0 mg/kg/injection, schedule: Q01DX009 (ip), vehicle: saline with Tween-80); 10 of 10 (dose: 16.0 mg/kg/injection, schedule: Q01DX009 (ip), vehicle: saline with Tween-80); 4 of 10 (dose: 32.0 mg/kg/injection, schedule: Q01DX009 (ip), vehicle: saline with Tween-80); 0 of 10 under setting [3].
As for `COc1cc(NC(=O)CN(CCCl)CCCl)cc(OC)c1OC`, for the setting “dose: 100.0 mg/kg/injection, schedule: Q01DX009 (ip), vehicle: saline with Tween-80”, the T/C is 128 % of control. Further, the survivor count under setting [4] was 4 of 6.
For the compound `CCC(=O)O[C@H]1CC[C@H]2[C@@H]3CC[C@H]4CC(=O)[C@H](C)C[C@]4(C)[C@H]3CC[C@]12C`, the T/C (dose: 512.0 mg/kg/injection, schedule: Q01DX009 (ip), vehicle: Klucel (hydroxypropylcellulose) (HPC)) is 125 % of control.
Regarding `CC1(C)N=C(N)N=C(N)N1c1ccc(OCCOc2ccc(S(=O)(=O)F)cc2)c(Cl)c1`, the T/C is 133 % of control (dose: 100.0 mg/kg/injection, schedule: Q04DX003 (ip), vehicle: saline) and 138 % of control (dose: 200.0 mg/kg/injection, schedule: Q04DX003 (ip), vehicle: saline).

Source of the values: PubChem BioAssay AID334 (DTP/NCI, 2004).
